# Experimental data reported in the supplement of paper PMC8728848.
# The list shows a part of the results.
# Key:
# Experiment in all cases: glycan array binding signal (z-score within array); higher = stronger binding
# Conditions in all cases: glycan notation: IUPAC condensed, linker removed
# [1] = target: Gal(a1-3)Gal(b1-4)GlcNAc
# Procedure, shortened: (§1)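 From the Consortium for Functional Glycomics database, 3228 arrays were curated, keeping only those whose protein sequence was available. Binding is given as a within-array Z-score averaged across arrays sharing a protein sequence and across linkers. Negative Z-scores can be read as non-binding.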
# [2] = target: Gal(a1-3)Gal(b1-4)GlcNAc(b1-2)Man
# Procedure, shortened: as §1
# [3] = target: Gal(a1-3)Gal(b1-4)GlcNAc(b1-2)Man(a1-3)[Gal(a1-3)Gal(b1-4)GlcNAc(b1-2)Man(a1-6)]Man(b1-4)GlcNAc(b1-4)GlcNAc
# Procedure, shortened: as §1
# [4] = target: Gal(a1-3)Gal(b1-4)GlcNAc(b1-3)GalNAc
# Procedure, shortened: as §1
# [5] = target: Gal(a1-3)Gal(b1-4)GlcNAc(b1-6)GalNAc
# Procedure, shortened: as §1
# [6] = target: Gal(a1-3)Gal(b1-4)[Fuc(a1-3)]GlcNAc
# Procedure, shortened: as §1
# [7] = target: Gal(a1-3)Gal(b1-4)[Fuc(a1-3)]GlcNAc(b1-2)Man(a1-3)[Gal(a1-3)Gal(b1-4)[Fuc(a1-3)]GlcNAc(b1-2)Man(a1-6)]Man(b1-4)GlcNAc(b1-4)GlcNAc
# Procedure, shortened: as §1
# [8] = target: Gal(a1-3)GalNAc
# Procedure, shortened: as §1
# [9] = target: Gal(a1-3)[Gal(a1-4)]Gal(b1-4)GlcNAc
# Procedure, shortened: as §1
# [10] = target: Gal(a1-4)Gal(b1-3)GlcNAc(b1-2)Man(a1-3)[Gal(a1-4)Gal(b1-3)GlcNAc(b1-2)Man(a1-6)]Man(b1-4)GlcNAc(b1-4)GlcNAc
# Procedure, shortened: as §1
# [11] = target: Gal(a1-4)Gal(b1-4)Glc
# Procedure, shortened: as §1
# [12] = target: Gal(a1-4)Gal(b1-4)GlcNAc
# Procedure, shortened: as §1
# [13] = target: Gal(a1-4)Gal(b1-4)GlcNAc(b1-2)Man(a1-3)[Gal(a1-4)Gal(b1-4)GlcNAc(b1-2)Man(a1-6)]Man(b1-4)GlcNAc(b1-4)GlcNAc
# Procedure, shortened: as §1
# [14] = target: Gal(a1-4)Gal(b1-4)GlcNAc(b1-3)Gal(b1-4)Glc
# Procedure, shortened: as §1
# [15] = target: Gal(a1-4)GlcNAc
# Procedure, shortened: as §1
# [16] = target: Gal(a1-6)Glc
# Procedure, shortened: as §1
# [17] = target: Gal(b1-2)Gal
# Procedure, shortened: as §1
# [18] = target: Gal(b1-3)Gal
# Procedure, shortened: as §1
# [19] = target: Gal(b1-3)Gal(b1-4)GlcNAc
# Procedure, shortened: as §1
# [20] = target: Gal(b1-3)GalNAc
# Procedure, shortened: as §1
# [21] = target: Gal(b1-3)GalNAc(a1-3)[Fuc(a1-2)]Gal(b1-4)Glc
# Procedure, shortened: as §1
# [22] = target: Gal(b1-3)GalNAc(a1-3)[Fuc(a1-2)]Gal(b1-4)GlcNAc
# Procedure, shortened: as §1
# [23] = target: Gal(b1-3)GalNAc(b1-3)Gal
# Procedure, shortened: as §1
# [24] = target: Gal(b1-3)GalNAc(b1-3)Gal(a1-4)Gal(b1-4)Glc
# Procedure, shortened: as §1
# [25] = target: Gal(b1-3)GalNAc(b1-4)Gal(b1-4)Glc
# Procedure, shortened: as §1
# [26] = target: Gal(b1-3)GalNAc(b1-4)[Neu5Ac(a2-3)]Gal(b1-4)Glc
# Procedure, shortened: as §1
# [27] = target: Gal(b1-3)GlcNAc
# Procedure, shortened: as §1
# [28] = target: Gal(b1-3)GlcNAc(a1-3)Gal(b1-4)GlcNAc
# Procedure, shortened: as §1
# [29] = target: Gal(b1-3)GlcNAc(a1-6)Gal(b1-4)GlcNAc
# Procedure, shortened: as §1
# [30] = target: Gal(b1-3)GlcNAc(b1-2)Man
# Procedure, shortened: as §1
# [31] = target: Gal(b1-3)GlcNAc(b1-2)Man(a1-3)[Gal(b1-3)GlcNAc(b1-2)Man(a1-6)]Man(b1-4)GlcNAc(b1-4)GlcNAc
# Procedure, shortened: as §1
# [32] = target: Gal(b1-3)GlcNAc(b1-2)Man(a1-3)[Gal(b1-3)GlcNAc(b1-2)Man(a1-6)]Man(b1-4)GlcNAc(b1-4)[Fuc(a1-6)]GlcNAc
# Procedure, shortened: as §1
# [33] = target: Gal(b1-3)GlcNAc(b1-2)Man(a1-3)[GlcNAc(b1-4)][Gal(b1-3)GlcNAc(b1-2)Man(a1-6)]Man(b1-4)GlcNAc(b1-4)GlcNAc
# Procedure, shortened: as §1
# [34] = target: Gal(b1-3)GlcNAc(b1-2)[Gal(b1-3)GlcNAc(b1-6)]Man(a1-6)[Gal(b1-3)GlcNAc(b1-2)Man(a1-3)]Man(b1-4)GlcNAc(b1-4)GlcNAc
# Procedure, shortened: as §1
# [35] = target: Gal(b1-3)GlcNAc(b1-3)Gal(b1-3)GlcNAc
# Procedure, shortened: as §1
# [36] = target: Gal(b1-3)GlcNAc(b1-3)Gal(b1-4)Glc
# Procedure, shortened: as §1
# [37] = target: Gal(b1-3)GlcNAc(b1-3)Gal(b1-4)GlcNAc
# Procedure, shortened: as §1
binder,measurement,setting,value
"HA-61200 (Pseudomonas aeruginosa), Q02SP8_PSEAB (protein) MNKCYALVWNVSQGCWNVVSEGSRRRGKPAGAKAAIASVLALLGATALAPAYALPSGGTVVGGSANGEIHLSGGNSLSVNQKVDKLIANWDSFSVAAGERVIFNQPSSSSIALNRVIGTKASDIQGRIDANGQVFLVNPNGVLFGRGAQVNVGGLVASTLDITDAEFNGNSSRYRFTGPSTNGVLNHGGAITAAEGGSIALLGAQVDNRGTVLAQMGGVGLGAGSDLTLNFDGNKLLDIRVDAGVANALASNGGLLKADGGRVLMAARTANALLNTVVNSQGAIEARSLRGKNGRIVLDG",glycan array binding signal (z-score),[1],-0.146
same,glycan array binding signal (z-score),[2],-0.282
same,glycan array binding signal (z-score),[3],0.841
same,glycan array binding signal (z-score),[4],-0.518
same,glycan array binding signal (z-score),[5],-1.12
same,glycan array binding signal (z-score),[6],-0.154
same,glycan array binding signal (z-score),[7],0.758
same,glycan array binding signal (z-score),[8],-0.442
same,glycan array binding signal (z-score),[9],0.037
same,glycan array binding signal (z-score),[10],9.66
same,glycan array binding signal (z-score),[11],1.97
same,glycan array binding signal (z-score),[12],0.171
same,glycan array binding signal (z-score),[13],1.2
same,glycan array binding signal (z-score),[14],-0.716
same,glycan array binding signal (z-score),[15],-0.101
same,glycan array binding signal (z-score),[16],0.384
same,glycan array binding signal (z-score),[17],-0.607
same,glycan array binding signal (z-score),[18],-0.137
same,glycan array binding signal (z-score),[19],0.122
same,glycan array binding signal (z-score),[20],-0.172
same,glycan array binding signal (z-score),[21],-0.155
same,glycan array binding signal (z-score),[22],-0.34
same,glycan array binding signal (z-score),[23],-0.879
same,glycan array binding signal (z-score),[24],1.09
same,glycan array binding signal (z-score),[25],-0.357
same,glycan array binding signal (z-score),[26],2.35
same,glycan array binding signal (z-score),[27],-0.668
same,glycan array binding signal (z-score),[28],-0.012
same,glycan array binding signal (z-score),[29],-0.002
same,glycan array binding signal (z-score),[30],0.38
same,glycan array binding signal (z-score),[31],-0.154
same,glycan array binding signal (z-score),[32],5.22
same,glycan array binding signal (z-score),[33],0.796
same,glycan array binding signal (z-score),[34],1.86
same,glycan array binding signal (z-score),[35],-0.565
same,glycan array binding signal (z-score),[36],-0.019
same,glycan array binding signal (z-score),[37],-0.049

# Random excerpt: two entries already listed
binder,measurement,setting,value
"HA-61200 (Pseudomonas aeruginosa), Q02SP8_PSEAB (protein) MNKCYALVWNVSQGCWNVVSEGSRRRGKPAGAKAAIASVLALLGATALAPAYALPSGGTVVGGSANGEIHLSGGNSLSVNQKVDKLIANWDSFSVAAGERVIFNQPSSSSIALNRVIGTKASDIQGRIDANGQVFLVNPNGVLFGRGAQVNVGGLVASTLDITDAEFNGNSSRYRFTGPSTNGVLNHGGAITAAEGGSIALLGAQVDNRGTVLAQMGGVGLGAGSDLTLNFDGNKLLDIRVDAGVANALASNGGLLKADGGRVLMAARTANALLNTVVNSQGAIEARSLRGKNGRIVLDG",glycan array binding signal (z-score),[14],-0.716
same,glycan array binding signal (z-score),[32],5.22
